# From patent publication US20170027949A1, “ASSOCIATION BETWEEN 8-CYCLOPROPYL-3-[2-(3-FLUOROPHENYL)ETHYL]-7,8-DIHYDRO-3H-[1,3]OXAZINO[6,5-g][1,2,3]BENZOTRIAZINE-4,9-DIONE AND AN ACETYLCHOLINESTERASE INHIBITOR, AND PHARMACEUTICAL COMPOSITIONS CONTAINING IT” (priority 2014, published 2017)
# Test system: 3-month-old C57BL/6 mice
# Assay: Excitatory post-synaptic potentials (EPSP) induced by electrical stimulation in alert mice (perforant pathway / dentate gyrus of the hippocampus)
# Assay type: in vivo
# Conditions: Compound S 3.0 mg/kg
# [1] = 5 minutes, single p.o. dose rivastigmine 0.03 mg/kg
# [2] = 10 minutes, single p.o. dose rivastigmine 0.03 mg/kg
# [3] = 15 minutes, single p.o. dose rivastigmine 0.03 mg/kg
# [4] = 20 minutes, single p.o. dose rivastigmine 0.03 mg/kg
# [5] = 25 minutes, single p.o. dose rivastigmine 0.03 mg/kg
# [6] = 30 minutes, single p.o. dose rivastigmine 0.03 mg/kg
# [7] = 35 minutes, single p.o. dose rivastigmine 0.03 mg/kg
# [8] = 40 minutes, single p.o. dose rivastigmine 0.03 mg/kg
# [9] = 45 minutes, single p.o. dose rivastigmine 0.03 mg/kg
# [10] = 50 minutes, single p.o. dose rivastigmine 0.03 mg/kg
# [11] = 55 minutes, single p.o. dose rivastigmine 0.03 mg/kg
# [12] = 60 minutes, single p.o. dose rivastigmine 0.03 mg/kg
# [13] = 65 minutes, single p.o. dose rivastigmine 0.03 mg/kg
# [14] = 70 minutes, single p.o. dose rivastigmine 0.03 mg/kg
# [15] = 75 minutes, single p.o. dose rivastigmine 0.03 mg/kg
# [16] = 80 minutes, single p.o. dose rivastigmine 0.03 mg/kg
# [17] = 85 minutes, single p.o. dose rivastigmine 0.03 mg/kg
# [18] = 90 minutes, single p.o. dose rivastigmine 0.03 mg/kg
# [19] = 95 minutes, single p.o. dose rivastigmine 0.03 mg/kg
# [20] = 100 minutes, single p.o. dose rivastigmine 0.03 mg/kg
# [21] = 105 minutes, single p.o. dose rivastigmine 0.03 mg/kg
# [22] = 110 minutes, single p.o. dose rivastigmine 0.03 mg/kg
# [23] = 115 minutes, single p.o. dose rivastigmine 0.03 mg/kg
# [24] = 120 minutes, single p.o. dose rivastigmine 0.03 mg/kg
# [25] = 125 minutes, single p.o. dose rivastigmine 0.03 mg/kg
# [26] = 130 minutes, single p.o. dose rivastigmine 0.03 mg/kg
# [27] = 135 minutes, single p.o. dose rivastigmine 0.03 mg/kg
# [28] = 140 minutes, single p.o. dose rivastigmine 0.03 mg/kg
# [29] = 145 minutes, single p.o. dose rivastigmine 0.03 mg/kg
# [30] = 150 minutes, single p.o. dose rivastigmine 0.03 mg/kg
# [31] = Baseline-5 (before administration), groups rivastigmine 0.03 mg/kg
# [32] = Baseline-10 (before administration), groups rivastigmine 0.03 mg/kg
# [33] = Baseline-15 (before administration), groups rivastigmine 0.03 mg/kg
# [34] = Baseline-20 (before administration), groups rivastigmine 0.03 mg/kg
# [35] = Baseline-25 (before administration), groups rivastigmine 0.03 mg/kg
# [36] = Baseline-30 (before administration), groups rivastigmine 0.03 mg/kg
compound,measurement,setting,value
CCN(C)C(=O)Oc1cccc([C@H](C)N(C)C)c1 [rivastigmine],"post hoc analysis versus carrier, field EPSP amplitudes",[1],0.725
same,"post hoc analysis versus carrier, field EPSP amplitudes",[2],0.939
same,"post hoc analysis versus carrier, field EPSP amplitudes",[3],0.833
same,"post hoc analysis versus carrier, field EPSP amplitudes",[4],0.861
same,"post hoc analysis versus carrier, field EPSP amplitudes",[5],0.639
same,"post hoc analysis versus carrier, field EPSP amplitudes",[6],0.853
same,"post hoc analysis versus carrier, field EPSP amplitudes",[7],0.894
same,"post hoc analysis versus carrier, field EPSP amplitudes",[8],0.241
same,"post hoc analysis versus carrier, field EPSP amplitudes",[9],0.028
same,"post hoc analysis versus carrier, field EPSP amplitudes",[10],0.660
same,"post hoc analysis versus carrier, field EPSP amplitudes",[11],0.230
same,"post hoc analysis versus carrier, field EPSP amplitudes",[12],0.225
same,"post hoc analysis versus carrier, field EPSP amplitudes",[13],0.014
same,"post hoc analysis versus carrier, field EPSP amplitudes",[14],0.530
same,"post hoc analysis versus carrier, field EPSP amplitudes",[15],0.254
same,"post hoc analysis versus carrier, field EPSP amplitudes",[16],0.904
same,"post hoc analysis versus carrier, field EPSP amplitudes",[17],0.972
same,"post hoc analysis versus carrier, field EPSP amplitudes",[18],0.356
same,"post hoc analysis versus carrier, field EPSP amplitudes",[19],0.526
same,"post hoc analysis versus carrier, field EPSP amplitudes",[20],0.971
same,"post hoc analysis versus carrier, field EPSP amplitudes",[21],0.558
same,"post hoc analysis versus carrier, field EPSP amplitudes",[22],0.632
same,"post hoc analysis versus carrier, field EPSP amplitudes",[23],0.007
same,"post hoc analysis versus carrier, field EPSP amplitudes",[24],0.163
same,"post hoc analysis versus carrier, field EPSP amplitudes",[25],0.251
same,"post hoc analysis versus carrier, field EPSP amplitudes",[26],0.311
same,"post hoc analysis versus carrier, field EPSP amplitudes",[27],0.536
same,"post hoc analysis versus carrier, field EPSP amplitudes",[28],0.323
same,"post hoc analysis versus carrier, field EPSP amplitudes",[29],0.810
same,"post hoc analysis versus carrier, field EPSP amplitudes",[30],0.413
same,"post hoc analysis versus carrier, field EPSP amplitudes",[31],0.705
same,"post hoc analysis versus carrier, field EPSP amplitudes",[32],0.869
same,"post hoc analysis versus carrier, field EPSP amplitudes",[33],0.135
same,"post hoc analysis versus carrier, field EPSP amplitudes",[34],0.985
same,"post hoc analysis versus carrier, field EPSP amplitudes",[35],0.987
same,"post hoc analysis versus carrier, field EPSP amplitudes",[36],0.681
"O=C1c2cc3nnn(CCc4cccc(F)c4)c(=O)c3cc2OCN1C1CC1 [Compound S, 8-cyclopropyl-3-[2-(3-fluorophenyl)ethyl]-7,8-dihydro-3H-[1,3]oxazino[6,5-g][1,2,3]benzotriazine-4,9-dione]","post hoc analysis versus carrier, field EPSP amplitudes",[1],0.277
same,"post hoc analysis versus carrier, field EPSP amplitudes",[2],0.954
same,"post hoc analysis versus carrier, field EPSP amplitudes",[3],0.549
same,"post hoc analysis versus carrier, field EPSP amplitudes",[4],0.960
same,"post hoc analysis versus carrier, field EPSP amplitudes",[5],0.205
same,"post hoc analysis versus carrier, field EPSP amplitudes",[6],0.424
same,"post hoc analysis versus carrier, field EPSP amplitudes",[7],0.738
same,"post hoc analysis versus carrier, field EPSP amplitudes",[8],0.229
same,"post hoc analysis versus carrier, field EPSP amplitudes",[9],0.007
same,"post hoc analysis versus carrier, field EPSP amplitudes",[10],0.244
same,"post hoc analysis versus carrier, field EPSP amplitudes",[11],0.310
same,"post hoc analysis versus carrier, field EPSP amplitudes",[12],0.243
same,"post hoc analysis versus carrier, field EPSP amplitudes",[13],0.118
same,"post hoc analysis versus carrier, field EPSP amplitudes",[14],0.584
same,"post hoc analysis versus carrier, field EPSP amplitudes",[15],0.284
same,"post hoc analysis versus carrier, field EPSP amplitudes",[16],0.856
same,"post hoc analysis versus carrier, field EPSP amplitudes",[17],0.980
same,"post hoc analysis versus carrier, field EPSP amplitudes",[18],0.596
same,"post hoc analysis versus carrier, field EPSP amplitudes",[19],0.197
same,"post hoc analysis versus carrier, field EPSP amplitudes",[20],0.592
same,"post hoc analysis versus carrier, field EPSP amplitudes",[21],0.688
same,"post hoc analysis versus carrier, field EPSP amplitudes",[22],0.601
same,"post hoc analysis versus carrier, field EPSP amplitudes",[23],0.002
same,"post hoc analysis versus carrier, field EPSP amplitudes",[24],0.007
same,"post hoc analysis versus carrier, field EPSP amplitudes",[25],0.243
same,"post hoc analysis versus carrier, field EPSP amplitudes",[26],0.521
same,"post hoc analysis versus carrier, field EPSP amplitudes",[27],0.979
same,"post hoc analysis versus carrier, field EPSP amplitudes",[28],0.337
same,"post hoc analysis versus carrier, field EPSP amplitudes",[29],0.810
same,"post hoc analysis versus carrier, field EPSP amplitudes",[30],0.362
same,"post hoc analysis versus carrier, field EPSP amplitudes",[31],0.886
same,"post hoc analysis versus carrier, field EPSP amplitudes",[32],0.989
same,"post hoc analysis versus carrier, field EPSP amplitudes",[33],0.399
same,"post hoc analysis versus carrier, field EPSP amplitudes",[34],1.000
same,"post hoc analysis versus carrier, field EPSP amplitudes",[35],0.997
same,"post hoc analysis versus carrier, field EPSP amplitudes",[36],0.621
